Data published in the supplement of paper PMC11006884.
This is a selection; strong and weak results do not stand in their true shares.

Sequences of proteins named here, by UniProt entry; tags and fusion partners are left off. A change or cut given only in a name is not applied to a line headed by its entry.
UniProt Q14980: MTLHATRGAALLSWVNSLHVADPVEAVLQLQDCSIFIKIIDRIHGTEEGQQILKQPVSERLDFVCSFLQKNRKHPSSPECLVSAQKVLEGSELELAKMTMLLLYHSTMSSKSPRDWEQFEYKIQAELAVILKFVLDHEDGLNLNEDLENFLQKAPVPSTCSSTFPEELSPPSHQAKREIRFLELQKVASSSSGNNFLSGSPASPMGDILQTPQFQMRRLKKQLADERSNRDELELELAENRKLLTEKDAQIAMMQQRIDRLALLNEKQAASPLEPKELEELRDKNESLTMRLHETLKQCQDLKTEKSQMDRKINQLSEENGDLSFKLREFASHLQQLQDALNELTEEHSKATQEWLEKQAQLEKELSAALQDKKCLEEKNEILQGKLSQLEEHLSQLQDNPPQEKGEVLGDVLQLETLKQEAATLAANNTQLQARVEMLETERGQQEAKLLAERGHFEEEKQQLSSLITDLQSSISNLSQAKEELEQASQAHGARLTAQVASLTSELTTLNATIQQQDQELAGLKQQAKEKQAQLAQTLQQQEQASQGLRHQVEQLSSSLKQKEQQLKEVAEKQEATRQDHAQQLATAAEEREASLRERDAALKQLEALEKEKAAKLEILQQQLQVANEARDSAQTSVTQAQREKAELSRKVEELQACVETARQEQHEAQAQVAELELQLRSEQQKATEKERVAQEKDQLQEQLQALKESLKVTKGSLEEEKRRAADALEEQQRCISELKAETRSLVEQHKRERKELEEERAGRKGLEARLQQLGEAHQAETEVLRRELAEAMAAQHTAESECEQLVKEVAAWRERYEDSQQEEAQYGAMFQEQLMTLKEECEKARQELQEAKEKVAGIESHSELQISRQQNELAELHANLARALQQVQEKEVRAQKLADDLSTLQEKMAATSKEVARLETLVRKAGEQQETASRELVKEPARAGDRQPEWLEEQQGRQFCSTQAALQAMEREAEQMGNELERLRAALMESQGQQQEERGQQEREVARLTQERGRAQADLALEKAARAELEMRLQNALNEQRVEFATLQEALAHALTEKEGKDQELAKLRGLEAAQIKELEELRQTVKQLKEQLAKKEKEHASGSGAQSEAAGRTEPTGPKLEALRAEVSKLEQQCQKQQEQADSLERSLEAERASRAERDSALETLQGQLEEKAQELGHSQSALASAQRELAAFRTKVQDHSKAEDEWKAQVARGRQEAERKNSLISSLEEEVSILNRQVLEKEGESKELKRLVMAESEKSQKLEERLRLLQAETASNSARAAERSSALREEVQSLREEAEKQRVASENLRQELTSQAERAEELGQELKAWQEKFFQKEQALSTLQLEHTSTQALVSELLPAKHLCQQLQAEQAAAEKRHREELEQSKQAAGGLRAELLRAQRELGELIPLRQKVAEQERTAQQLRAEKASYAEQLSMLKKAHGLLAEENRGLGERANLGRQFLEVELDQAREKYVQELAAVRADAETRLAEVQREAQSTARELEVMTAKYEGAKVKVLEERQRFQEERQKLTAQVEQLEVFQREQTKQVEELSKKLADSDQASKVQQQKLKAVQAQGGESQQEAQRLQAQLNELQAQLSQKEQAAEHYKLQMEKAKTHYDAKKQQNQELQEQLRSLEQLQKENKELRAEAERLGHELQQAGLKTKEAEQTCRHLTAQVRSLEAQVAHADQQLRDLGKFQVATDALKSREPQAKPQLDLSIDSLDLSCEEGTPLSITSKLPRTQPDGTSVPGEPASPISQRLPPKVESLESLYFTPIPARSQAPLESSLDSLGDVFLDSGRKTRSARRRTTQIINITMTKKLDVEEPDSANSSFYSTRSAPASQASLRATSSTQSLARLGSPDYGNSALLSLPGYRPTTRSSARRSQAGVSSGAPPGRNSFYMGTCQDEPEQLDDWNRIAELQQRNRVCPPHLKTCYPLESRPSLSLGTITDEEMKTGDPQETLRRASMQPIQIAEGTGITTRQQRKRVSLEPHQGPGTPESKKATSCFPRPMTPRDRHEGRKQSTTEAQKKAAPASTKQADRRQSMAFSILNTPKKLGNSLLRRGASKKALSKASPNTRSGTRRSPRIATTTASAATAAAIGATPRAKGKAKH
UniProt Q13642: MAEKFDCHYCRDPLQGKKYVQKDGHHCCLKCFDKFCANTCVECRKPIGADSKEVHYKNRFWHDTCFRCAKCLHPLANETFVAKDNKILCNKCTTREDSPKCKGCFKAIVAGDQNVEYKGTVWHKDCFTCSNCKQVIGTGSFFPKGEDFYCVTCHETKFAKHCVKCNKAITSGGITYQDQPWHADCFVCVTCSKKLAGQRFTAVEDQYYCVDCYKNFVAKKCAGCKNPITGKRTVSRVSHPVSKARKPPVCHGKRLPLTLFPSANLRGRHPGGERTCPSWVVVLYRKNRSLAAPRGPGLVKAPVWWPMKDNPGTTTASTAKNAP
UniProt Q14498: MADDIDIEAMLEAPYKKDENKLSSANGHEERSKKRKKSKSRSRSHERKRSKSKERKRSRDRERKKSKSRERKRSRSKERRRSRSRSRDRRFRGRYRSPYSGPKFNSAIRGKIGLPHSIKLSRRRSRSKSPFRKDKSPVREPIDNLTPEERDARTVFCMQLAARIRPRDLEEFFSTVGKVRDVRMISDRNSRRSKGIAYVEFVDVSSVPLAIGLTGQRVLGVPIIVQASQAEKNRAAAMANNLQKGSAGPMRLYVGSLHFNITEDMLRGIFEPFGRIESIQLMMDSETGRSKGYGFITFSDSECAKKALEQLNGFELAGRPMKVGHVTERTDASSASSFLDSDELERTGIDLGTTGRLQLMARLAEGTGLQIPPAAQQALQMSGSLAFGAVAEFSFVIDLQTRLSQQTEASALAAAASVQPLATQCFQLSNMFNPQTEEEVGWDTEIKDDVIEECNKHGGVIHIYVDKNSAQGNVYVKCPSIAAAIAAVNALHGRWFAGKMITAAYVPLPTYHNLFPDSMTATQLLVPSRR
UniProt Q13838, whole entry, looked up: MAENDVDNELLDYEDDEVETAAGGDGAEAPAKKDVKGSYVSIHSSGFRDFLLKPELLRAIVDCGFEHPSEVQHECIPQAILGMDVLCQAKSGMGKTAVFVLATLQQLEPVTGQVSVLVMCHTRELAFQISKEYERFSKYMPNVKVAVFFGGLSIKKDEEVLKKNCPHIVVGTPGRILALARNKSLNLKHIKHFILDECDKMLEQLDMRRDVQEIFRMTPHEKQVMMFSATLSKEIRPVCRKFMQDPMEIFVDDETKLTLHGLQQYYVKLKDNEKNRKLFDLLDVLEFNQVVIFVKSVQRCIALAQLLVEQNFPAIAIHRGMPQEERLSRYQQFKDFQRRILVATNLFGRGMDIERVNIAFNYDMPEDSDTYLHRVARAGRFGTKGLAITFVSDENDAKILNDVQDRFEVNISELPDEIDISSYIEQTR
UniProt Q14694, whole entry, looked up: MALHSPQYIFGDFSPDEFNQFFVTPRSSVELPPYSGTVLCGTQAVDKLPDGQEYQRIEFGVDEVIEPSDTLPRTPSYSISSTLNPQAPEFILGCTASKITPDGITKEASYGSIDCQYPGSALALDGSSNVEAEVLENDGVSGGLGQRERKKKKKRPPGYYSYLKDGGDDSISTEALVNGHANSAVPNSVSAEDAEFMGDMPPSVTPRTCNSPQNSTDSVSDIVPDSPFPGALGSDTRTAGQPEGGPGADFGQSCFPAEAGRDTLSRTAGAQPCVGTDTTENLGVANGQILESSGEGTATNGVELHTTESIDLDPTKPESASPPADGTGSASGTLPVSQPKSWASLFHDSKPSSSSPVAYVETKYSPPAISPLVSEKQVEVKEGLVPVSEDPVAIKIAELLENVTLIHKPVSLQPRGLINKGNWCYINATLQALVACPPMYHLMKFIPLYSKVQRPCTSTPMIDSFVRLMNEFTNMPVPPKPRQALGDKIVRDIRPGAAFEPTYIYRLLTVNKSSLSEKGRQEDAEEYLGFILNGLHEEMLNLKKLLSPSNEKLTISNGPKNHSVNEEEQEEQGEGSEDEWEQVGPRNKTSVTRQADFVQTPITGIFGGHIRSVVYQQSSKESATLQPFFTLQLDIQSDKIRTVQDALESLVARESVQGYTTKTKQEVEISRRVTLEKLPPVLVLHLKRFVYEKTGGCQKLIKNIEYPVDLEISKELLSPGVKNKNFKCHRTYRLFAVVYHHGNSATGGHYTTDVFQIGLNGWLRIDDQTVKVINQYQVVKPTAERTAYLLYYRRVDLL
UniProt Q14674: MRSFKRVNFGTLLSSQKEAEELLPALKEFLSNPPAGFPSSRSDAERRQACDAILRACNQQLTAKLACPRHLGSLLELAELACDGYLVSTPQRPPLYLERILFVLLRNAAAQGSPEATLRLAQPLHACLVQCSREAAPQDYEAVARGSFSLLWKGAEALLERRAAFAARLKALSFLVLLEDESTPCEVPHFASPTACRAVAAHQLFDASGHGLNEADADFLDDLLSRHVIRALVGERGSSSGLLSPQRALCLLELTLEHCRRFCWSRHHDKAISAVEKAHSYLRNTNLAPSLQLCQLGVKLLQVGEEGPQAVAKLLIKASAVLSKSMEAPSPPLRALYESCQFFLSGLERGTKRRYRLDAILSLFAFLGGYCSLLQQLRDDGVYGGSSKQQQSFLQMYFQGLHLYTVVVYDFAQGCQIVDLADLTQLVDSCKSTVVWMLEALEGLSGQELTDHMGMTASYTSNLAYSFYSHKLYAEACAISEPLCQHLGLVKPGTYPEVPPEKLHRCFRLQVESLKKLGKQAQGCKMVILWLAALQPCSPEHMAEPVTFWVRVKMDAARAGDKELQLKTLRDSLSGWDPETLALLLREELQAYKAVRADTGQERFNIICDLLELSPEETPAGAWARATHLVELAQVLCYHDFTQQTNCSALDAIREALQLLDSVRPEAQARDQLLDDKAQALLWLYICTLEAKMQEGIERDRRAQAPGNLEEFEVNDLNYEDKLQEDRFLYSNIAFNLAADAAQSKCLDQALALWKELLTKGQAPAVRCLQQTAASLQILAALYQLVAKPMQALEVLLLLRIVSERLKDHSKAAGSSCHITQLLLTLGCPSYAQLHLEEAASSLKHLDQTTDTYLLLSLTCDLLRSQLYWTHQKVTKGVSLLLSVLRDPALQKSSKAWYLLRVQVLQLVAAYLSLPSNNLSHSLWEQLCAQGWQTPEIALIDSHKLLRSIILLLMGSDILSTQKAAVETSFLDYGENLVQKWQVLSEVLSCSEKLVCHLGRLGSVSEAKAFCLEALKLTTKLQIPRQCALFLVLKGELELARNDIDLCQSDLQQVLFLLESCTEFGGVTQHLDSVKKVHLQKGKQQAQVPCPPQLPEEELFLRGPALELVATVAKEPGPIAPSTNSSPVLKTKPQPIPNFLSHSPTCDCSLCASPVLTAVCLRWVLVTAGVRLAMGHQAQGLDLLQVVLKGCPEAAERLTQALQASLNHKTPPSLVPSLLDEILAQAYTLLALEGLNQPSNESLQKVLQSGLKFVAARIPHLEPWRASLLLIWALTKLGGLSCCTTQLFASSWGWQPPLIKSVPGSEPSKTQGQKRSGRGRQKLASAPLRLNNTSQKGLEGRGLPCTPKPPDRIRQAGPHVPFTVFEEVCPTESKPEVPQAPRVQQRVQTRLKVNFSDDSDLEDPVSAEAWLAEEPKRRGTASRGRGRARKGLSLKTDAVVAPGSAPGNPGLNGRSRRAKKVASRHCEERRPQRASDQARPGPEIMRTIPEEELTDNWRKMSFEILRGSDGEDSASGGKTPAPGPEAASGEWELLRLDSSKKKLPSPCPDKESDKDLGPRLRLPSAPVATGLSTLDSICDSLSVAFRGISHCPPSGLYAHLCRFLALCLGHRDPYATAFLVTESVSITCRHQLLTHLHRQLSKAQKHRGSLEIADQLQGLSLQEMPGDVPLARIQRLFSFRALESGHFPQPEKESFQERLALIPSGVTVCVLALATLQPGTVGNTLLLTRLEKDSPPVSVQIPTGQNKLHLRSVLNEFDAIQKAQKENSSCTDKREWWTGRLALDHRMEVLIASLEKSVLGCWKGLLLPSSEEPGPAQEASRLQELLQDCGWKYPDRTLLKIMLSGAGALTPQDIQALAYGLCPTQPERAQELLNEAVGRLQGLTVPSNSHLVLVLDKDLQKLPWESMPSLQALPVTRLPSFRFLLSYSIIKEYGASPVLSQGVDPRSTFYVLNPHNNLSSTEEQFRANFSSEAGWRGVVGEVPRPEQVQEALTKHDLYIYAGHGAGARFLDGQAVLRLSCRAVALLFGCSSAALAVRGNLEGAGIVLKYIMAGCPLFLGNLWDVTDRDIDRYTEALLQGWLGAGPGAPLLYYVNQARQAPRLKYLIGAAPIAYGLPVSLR
UniProt Q13643: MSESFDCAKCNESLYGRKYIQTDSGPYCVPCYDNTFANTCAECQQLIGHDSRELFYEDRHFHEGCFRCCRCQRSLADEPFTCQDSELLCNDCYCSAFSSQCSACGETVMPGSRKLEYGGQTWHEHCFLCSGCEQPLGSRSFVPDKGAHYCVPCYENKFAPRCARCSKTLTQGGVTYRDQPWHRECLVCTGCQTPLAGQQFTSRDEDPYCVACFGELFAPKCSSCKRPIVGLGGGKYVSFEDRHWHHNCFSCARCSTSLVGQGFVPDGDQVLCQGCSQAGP

Compound: COC(=O)C#Cc1ccccc1 [methyl 3-phenylpropiolate]
Assay: log2 ratio of iodoacetamide-alkyne labeling of the cysteine site, DMSO over compound (competition); higher = stronger covalent engagement of the cysteine by the compound, active = 1 or more
Conditions: 500 µM; treatment time 1 h; system: HEK293T cell lysate
Procedure, shortened: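 HEK293T lysate at 2 mg/mL was treated with vehicle or electrophile (500 µM) for 1 h at ambient temperature, then labelled with iodoacetamide alkyne (1 h), clicked to sCIP-TMT reagents, pooled, digested with trypsin overnight at 37 °C, enriched on streptavidin and eluted with acid. Peptides were analysed by Orbitrap Eclipse LC-MS/MS with FAIMS and quantified in FragPipe, using duplicate channels and three replicates, with cysteines quantified in only one replicate excluded. The log2 competition ratio for each cysteine is the mean control-channel reporter intensity divided by the mean compound-channel reporter intensity.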

Target	log2 ratio of iodoacetamide-alkyne labeling
DYNC1H1 C1888 (UniProt Q14204)	inactive: 0.266
NUMA1 C80 (UniProt Q14980)	inactive: 0.378
DYNC1H1 C4644 (UniProt Q14204)	inactive: 0.211
BMS1 C556 (UniProt Q14692)	inactive: 0.441
FHL1 C132 (UniProt Q13642)	inactive: -0.164
UniProt Q13885_C12	inactive: 0.783
SCRIB C1082 (UniProt Q14160)	inactive: 0.0156
DIP2A C6 (UniProt Q14689)	active: 1.75
UniProt Q14562_C123	inactive: 0.177
DIP2A C252 (UniProt Q14689)	inactive: 0.649
RBM39 C303 (UniProt Q14498)	inactive: 0.171
DDX39B C198 (UniProt Q13838)	inactive: -0.129
NUMA1 C1937 (UniProt Q14980)	inactive: 0.741
USP10 C456 (UniProt Q14694)	inactive: 0.314
ESPL1 C1369 (UniProt Q14674)	inactive: 0.218
TTLL12 C528 (UniProt Q14166)	inactive: -0.155
PUM1 C234 (UniProt Q14671)	inactive: 0.334
SNW1 C250 (UniProt Q13573)	inactive: 0.496
UniProt Q14141_C42	inactive: -0.333
FHL3 C212 (UniProt Q13643)	inactive: 0.0725
CAMK1 C179 (UniProt Q14012)	inactive: 0.375
DYNC1H1 C2142 (UniProt Q14204)	inactive: 0.486

Single entries from the entries so far:
For log2 ratio of iodoacetamide-alkyne labeling, NUMA1 C1937 (UniProt Q14980) shows inactive: 0.741
For log2 ratio of iodoacetamide-alkyne labeling, NUMA1 C80 (UniProt Q14980) shows inactive: 0.378
